The values that follow come from PubChem BioAssay AID2685 (National Center for Advancing Translational Sciences (NCATS), 2010).

The list shows a part of the results. The main result of the screen is listed elsewhere. These columns were measured beside it and carry no call. Compounds called inactive in the main read-out are mostly missing here. Potencies come from curve fits of mixed quality, noted in brackets.

As a reminder, the AC50 is the concentration at which the activity in the assay is half-maximal. A lower AC50 goes with activity at low concentration.

The test is described as follows: qHTS Assay for Lipid Storage Modulators in Drosophila S3 Cells.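 As to cell number change: cells counted by Cell Tracker Red CMTPX staining in the red channel.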 The note with it: BODIPY lipid droplet fluorescence, 18-24 h; for cell number change: measured here: cell count max response, cells fed with added oleic acid. Put shortly:
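Drosophila S3 cells loaded with oleic acid (400 uM, as added) and compounds at several concentrations; lipid droplets imaged by 488-nm laser-scanning cytometry, 500–530 nm intensity and object ratio to cell channel. Percent activity normalized to 20 uM Triacsin C.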

The mark [1] stands for this setting: measured here: lipid fluorescence (Fed channel) AC50, cells fed with added oleic acid.
Where [2] appears, read: measured here: cell number channel AC50, cells fed with added oleic acid.

Regarding `CCc1ccc(N2CSC3=C(C#N)C(c4cccs4)CC(=O)N3C2)cc1` (centres undefined), the cell number change was -1.08%. Besides, under setting [1], the AC50 is 4.11 µM [rising, partial curve, poor fit].
As to `CCOC(=O)C1=C(C)NC(C)=C(C(=O)OCC)C1C(=O)OCC(=O)NC(C)c1ccccc1` (centres undefined), the cell number change came out at 4.53%. For the same molecule, the AC50 under setting [1] is 0.82 µM [falling, partial curve, poor fit].
`CCCn1cc([C@@H]2C[C@H]3CN(Cc4cccc(Cl)c4)C(=O)[C@]34CCCN24)c(C)n1`: the cell number change was 2.69%. For the same molecule, under setting [1], the AC50 is 3.66 µM [falling, partial curve, poor fit].
For `COc1ccc2c(c1)O[C@H](c1ccc3c(c1)OCO3)[C@@H](O)C2=O`, the cell number change was -0.132%. Also, the concentration at half-maximal activity (AC50) under setting [1] was 0.92 µM [rising, partial curve].
Regarding `Cc1ccc(NC(=O)CSc2nnc([C@@H]3CCCN3C(=O)OC(C)(C)C)o2)c(C)c1`, the cell number change worked out at 14.5%. Besides, the AC50 under setting [2] was 0.103 µM [rising, full curve, poor fit].
As for `CO/N=C\CC(=O)Nc1ccc(Cl)c(Cl)c1`, the cell number change came to 15.1%. Under setting [2], the AC50 is 0.13 µM [falling, full curve, poor fit]. The half-maximal activity concentration (AC50) under setting [1] is 0.146 µM [falling, full curve, poor fit].
As for `NNc1nc2c(-c3cccc(C(F)(F)F)c3)nnn2c2ccccc12`, the cell number change was -30.7%. The AC50 under setting [2] was 18.4 µM [falling, partial curve]. In addition, the AC50 under setting [1] was 18.4 µM [falling, partial curve].
In the case of `CCn1c(SCc2nc3ccccc3[nH]2)nnc1-c1ccncc1`, the cell number change was determined as 3.17%. The AC50 under setting [1] was 14.6 µM [rising, partial curve, poor fit].
Consider `C=CCn1c(COc2ccc(F)cc2)nnc1SCC(=O)NC(=O)NCc1ccco1`, for which the cell number change was -17.6%. Moreover, the AC50 under setting [2] is 4.61 µM [falling, partial curve, poor fit].
Turning to `CN(CC(=O)Nc1ccc(OC(F)(F)F)cc1)C1CCCCC1`, the cell number change came out at 1.21%. In addition, the AC50 under setting [2] is 0.116 µM [falling, full curve, poor fit]. Besides, the AC50 under setting [1] is 0.103 µM [falling, full curve, poor fit].
As to `COc1cc(NC(C)CCc2ccccc2)cc(OC)c1OC` (centres undefined), the cell number change was -39.7%. Besides, the AC50 under setting [2] was 14.6 µM [falling, partial curve, poor fit].
On to `COCc1cc(=O)[nH]c2cc(NC(=O)C3CC3)c(C)cc12`, for which the cell number change came to 60.5%. In addition, the AC50 under setting [2] is 29.1 µM [rising, single point]. The AC50 under setting [1] was 0.82 µM [rising, single point].
As for `COc1cccc2cc(C(=O)C3=C(O)C(=O)N(CCCN(C)C)C3c3ccncc3)oc12` (centres undefined), the AC50 runs as follows: under setting [2], 6.51 µM [rising, partial curve, poor fit]; under setting [1], 1.64 µM [falling, full curve].
Regarding `CCCCCn1c2c(c(=N)c3ccccc31)CCC2`, the cell number change is -52.6%. The AC50 under setting [2] is 32.6 µM [falling, single point]. Further, the AC50 under setting [1] was 29.1 µM [falling, single point].
Turning to `COc1cc(OC)c(C(=O)Nc2cccc(C(C)=O)c2)cc1OC`, the AC50 reads like this: under setting [2], 0.326 µM [rising, full curve]; under setting [1], 0.146 µM [rising, full curve, poor fit].
Regarding `Cc1nn2c(Nc3ccccc3)c3c(nc2c1-c1ccccc1)CCC3`, the cell number change is -31.5%. Further, the AC50 under setting [2] was 29.1 µM [falling, single point]. In addition, the half-maximal activity concentration (AC50) under setting [1] was 32.6 µM [falling, single point].
Take `Cc1cc(SCC(=O)NN=C2CCN(C(C)C)CC2)c(C)cc1Br`: the cell number change was determined as 6.58%. Further, the AC50 under setting [1] was 5.17 µM [rising, partial curve, poor fit].
Regarding `COc1ccc(CN(C)S(=O)(=O)c2nnc(NC(=O)c3ccc(C)cc3)s2)cc1OC`, the cell number change is -7.41%. The half-maximal activity concentration (AC50) under setting [1] was 0.0058 µM [rising, full curve, poor fit].
With `CN(C)CC(C)(C)CNS(=O)(=O)c1cccc2nsnc12`, the cell number change was -21.6%. Also, under setting [1], the AC50 was 5.8 µM [falling, partial curve, poor fit].
In the case of `CC(=O)N1CCSc2ccc(S(=O)(=O)NCc3ccc(F)cc3)cc21`, the cell number change was -31.6%. Under setting [2], the AC50 is 29.1 µM [falling, single point]. For the same molecule, under setting [1], the AC50 was 3.26 µM [falling, partial curve].
Turning to `COc1ccc(C(=O)CN2CCN(c3ncccn3)CC2)cc1`, the cell number change is -19.8%. Besides, the AC50 under setting [1] is 25.9 µM [falling, partial curve].
On to `CCc1c(C(=O)Nc2ccccc2C(N)=O)csc1C`, for which the cell number change was 3.52%. Under setting [2], the concentration at half-maximal activity (AC50) is 6.51 µM [rising, single point].
`O=C(Cn1ncn2c(cc3ccccc32)c1=O)NCCc1cccs1`: the cell number change is -16.5%. Under setting [1], the AC50 is 4.11 µM [rising, full curve, poor fit].
For the molecule `O=C(CCc1ccccc1O)NC1CCCc2ccccc21` (centres undefined), the cell number change is -20.8%.
For `Cc1noc(C)c1COc1ccc(C(=O)N2CCCC(C(N)=O)C2)cc1` (centres undefined), the cell number change amounted to 28.4%. Under setting [1], the concentration at half-maximal activity (AC50) is 5.17 µM [rising, full curve, poor fit].
Take `O=C(NCC(=O)N(c1ccccc1)C(C(=O)NC1CCCC1)c1ccncc1)c1cccs1` (centres undefined): the AC50 under setting [1] was 0.0517 µM [falling, full curve, poor fit].
Regarding `O=C(COC(=O)CSCC(=O)N1CCCCC1)NCc1ccc(F)cc1`, the cell number change was -0.147%. The AC50 under setting [1] was 1.84 µM [falling, full curve].
Turning to `O=C(CCN1CCN(Cc2ccccc2)CC1)Nc1ccc(OCc2ccccc2)cc1`, the cell number change was -29.4%. The AC50 under setting [1] is 0.82 µM [falling, full curve, poor fit].
On to `O=[N+]([O-])c1cc(C(F)(F)F)ccc1Sc1ccc2ccccc2n1`, for which the cell number change is 6.14%. Also, the AC50 under setting [2] is 0.731 µM [rising, single point]. Moreover, the half-maximal activity concentration (AC50) under setting [1] was 0.58 µM [rising, single point].
`CNc1nc2ccccc2n1CC(=O)c1ccccc1`: the cell number change was determined as 6.32%. Besides, the AC50 under setting [1] is 0.58 µM [rising, single point].
For the molecule `Cn1cc(Br)c(C(=O)Nc2sc3c(c2C(N)=O)CCCC3)n1`, the cell number change was -13.2%. The AC50 under setting [1] is 0.112 µM [rising, full curve, poor fit].
In the case of `CC(C)c1ccc2oc(=O)cc(CN3CCCCC3)c2c1`, the cell number change is -7.56%. Further, the AC50 under setting [1] was 18.4 µM [falling, single point].
As to `CCCCCCn1nc(C(=O)OCC(=O)c2c(N)n(C)c(=O)n(C)c2=O)c2ccccc2c1=O`, the cell number change is -17%. For the same molecule, the AC50 under setting [1] was 32.6 µM [falling, single point].
For `O=C(Cc1noc2ccccc12)Nc1ccc(Cl)cc1`, the cell number change was determined as 6.37%. Also, the half-maximal activity concentration (AC50) under setting [1] was 0.0326 µM [rising, full curve, poor fit].
